Publication PMC5840378
Results are given in words; binding and its absence hold for the method and conditions named. In cells and extracts the contact can be indirect. Some results given as binding are weak or reduced against the parent protein; the word gives no strength.

Sequences of proteins named here, by UniProt entry; tags and fusion partners are left off.
UniProt P99999: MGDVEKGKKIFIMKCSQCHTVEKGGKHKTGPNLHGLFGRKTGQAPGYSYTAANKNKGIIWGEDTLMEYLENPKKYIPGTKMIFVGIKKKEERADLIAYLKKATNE
UniProt P62258: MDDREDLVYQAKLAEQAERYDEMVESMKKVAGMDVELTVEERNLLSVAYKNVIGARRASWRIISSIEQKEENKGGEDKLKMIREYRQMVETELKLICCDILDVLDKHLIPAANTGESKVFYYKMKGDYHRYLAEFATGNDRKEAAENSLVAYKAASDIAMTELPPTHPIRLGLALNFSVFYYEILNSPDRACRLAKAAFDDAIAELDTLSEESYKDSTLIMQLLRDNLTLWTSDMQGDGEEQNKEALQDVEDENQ

Molecular target: cytochrome c (Cc), endogenous, cytosolic fraction of CPT-treated HeLa cells (human (endogenous in HeLa)) (UniProt P99999)
Assay: co-IP; rabbit anti-human Cc serum added to 300 μg cytosolic fraction of HeLa cells treated with 20 μM CPT for 4 h; Protein A Sepharose; western blot for 14-3-3ε; IgG as control

binding: binds
Substance: 14-3-3ε, endogenous, cytosolic fraction of HeLa cells (from UniProt P62258 1-255)
